In PubChem BioAssay AID2631 (Broad Institute, 2010):
The other results are listed elsewhere or left out. Where no call is shown, the source marks the result inconclusive.

Assay: cytotoxicity toward Ras-transformed BJeLR fibroblasts, dose response, cell-based, alamar blue fluorescence, cherrypicked samples (AID 2631)
Details: BJeLR fibroblast viability, 48 h, at 13.3 µM (top of the series)

Structure (SMILES) | activity, negative = growth loss
COc1ccc2[nH]c3c(C)c4ccncc4c(C)c3c2c1 | -52.2%
COc1ccccc1-c1nnc2sc(-c3ccc(N(C)C)cc3)nn12 | -65%
Cc1cccc(N(C)S(=O)(=O)c2ccc(-c3cnc(C4CC4)o3)cc2)c1 | -68.2%
COc1ccc(NC(=O)C(=O)NCC2CCCN2S(=O)(=O)c2ccc(C)cc2)cc1 (stereo not drawn) | -66.1%
CSc1ccc(COC(=O)c2cc([N+](=O)[O-])ccc2N2CCOCC2)cc1 | -67.1%
COc1cc2c(c(OC)c1OC)-c1ccc(O)c(=O)cc1C(NC(C)=O)CC2 (stereo not drawn) | -65.7%
Cc1ccc(C(=O)c2cc([N+](=O)[O-])ccc2N2CCCCC2)c(C)c1 | -68.1%
COc1ccc(COC(=O)c2cc([N+](=O)[O-])ccc2N2CCOCC2)cc1F | -70.3%
